# Assay results reported in PubChem BioAssay AID445 (National Center for Advancing Translational Sciences (NCATS), 2006).
# The other results are listed elsewhere or left out. Further columns of the screen follow, without active or inactive calls. The list favours compounds with an active or inconclusive main result. Words in brackets tell the shape of the fitted curve; partial curves, single points and poor fits give uncertain potencies.
# Test: IkB Signaling
# Conditions: ABC-DLBCL IkBa-CBG/CBR dual luciferase ratio (green luciferase fused to IkBa over red control in OCI-Ly3 lymphoma cells), 4 h
# Outline: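 Luminescence ratio of IκBα-fused green versus native red beetle luciferase in OCI-Ly3 cells, 4 h post-doxycycline with compound; red signal alone, scaled from basal (0%) to zero light (-100%), flagged nonspecific or cytotoxic effects.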
# [1] = measured here: control luc red channel unless noted
# [2] = measured here: IkB-luc green channel
# [3] = measured here: control luc red channel
structure (smiles),measurement,setting,value
Cc1c(NC(=O)C(C)(C)Oc2ccc(Cl)cc2)cccc1-c1nc2ncccc2o1,AC50,[1],"15.8 µM [falling, partial curve]"
CCOC(=O)CC(=O)Nc1nc2ccccc2s1,AC50,[1],"39.8 µM [falling, single point]"
CCCc1c(-c2ccc(O)cc2)nn(-c2ccc(O)cc2)c1-c1ccc(O)cc1,AC50,[1],"31.6 µM [falling, partial curve]"
CCC(C(=O)Nc1ccccc1OC)n1nc(C)c2sc3ccccc3c2c1=O (centres undefined),AC50,[1],"25.1 µM [falling, single point]"
Cc1ccc(C)c(OCC(=O)Nc2ccc(S(=O)(=O)Nc3onc(C)c3C)cc2)c1C,AC50,[1],"10 µM [falling, partial curve]"
CCCC1C(c2ccco2)NC(c2ccco2)CC1(C)O (centres undefined),AC50,[1],"10 µM [falling, partial curve]"
CCN(CCCNC(=O)CSc1cc(=O)n(CC)c2ccccc12)c1cccc(C)c1,AC50,[1],"12.6 µM [falling, partial curve]"
CCOc1ccc(CCNC(=O)c2ccc(CS(=O)Cc3cccc(Cl)c3)o2)cc1 (centres undefined),AC50,[1],"31.6 µM [falling, single point]"
Cc1ccc2c(=O)c(C(=O)c3ccc(Cl)cc3)cn(CC(=O)NC3CCCCC3)c2n1,AC50,[1],"7.94 µM [falling, partial curve]"
O=S(=O)(c1ccc(F)cc1)N(Cc1nc(-c2ccc(Cl)cc2)no1)C1CCCCC1,AC50,[1],"12.6 µM [falling, partial curve, poor fit]"
O=C(Nc1c(C(=O)O)oc2ccccc12)c1ccc(C(F)(F)F)cc1,AC50,[2],"3.98 µM [rising, single point]"
same,AC50,[3],"1 µM [rising, partial curve]"
Cc1cccc(Nc2ncc3c(n2)CC(C)CC3=O)c1 (centres undefined),AC50,[1],"12.6 µM [falling, partial curve]"
CCOc1ccc(C(=O)Nc2ccc(S(=O)(=O)Nc3nc(C)cc(C)n3)cc2)cc1OC,AC50,[1],"12.6 µM [falling, partial curve, poor fit]"
COc1ccc(N(CC(=O)Nc2cc(C)ccc2C)S(=O)(=O)c2ccc(OC)c(OC)c2)cc1,AC50,[1],"20 µM [falling, partial curve]"
O=C(CN1CCN(C(=O)c2ccco2)CC1)Nc1ccccc1-c1ccccc1,AC50,[1],"10 µM [falling, partial curve]"
O=C(Nc1ccc(F)cc1F)c1ccc2c(O)c(S(=O)(=O)c3ccc(Cl)cc3)c(=O)[nH]c2c1,AC50,[1],"25.1 µM [falling, single point]"
COc1cc(NC(=O)CSc2nc3nc(C)c(Cc4ccc(C)cc4)c(C)n3n2)cc(OC)c1OC,AC50,[1],"25.1 µM [falling, partial curve]"
CC(=O)c1cc(-c2ccccc2)n(CCC(=O)Nc2ccc(C)cc2C)c1C,AC50,[1],"12.6 µM [rising, partial curve]"
Cc1ccc(C2C(C#N)=C(N)SC(N)=C2C#N)cc1,AC50,[1],"31.6 µM [falling, single point]"
O=C(CN1CCN(c2ccc(F)cc2)CC1)Nc1nnc(-c2ccccc2)s1,AC50,[1],"15.8 µM [falling, partial curve]"
COC(=O)c1c(NC(=O)Nc2ccc(Cl)cc2)sc(C)c1C,AC50,[1],"3.98 µM [falling, full curve, poor fit]"
Cc1noc(C)c1COC(=O)c1cccc(S(=O)(=O)N2c3ccccc3CC2C)c1 (centres undefined),AC50,[1],"12.6 µM [falling, partial curve]"
COc1ccc(NC(=O)/C=C\c2ccc(Cl)cc2)cc1,AC50,[1],"5.01 µM [falling, full curve]"
Cc1ccc2c(c1)N(C(=O)Nc1cccc(C)c1C)CCO2,AC50,[1],"12.6 µM [falling, partial curve]"
CS(=O)(=O)N1CCc2cc(C(=O)N3CCN(c4ccccc4)CC3)ccc21,AC50,[1],"39.8 µM [falling, single point]"
CC1CCC(N2CC(=O)N(C3CCCCC3)C(c3ccc(F)cc3)C2=O)CC1 (centres undefined),AC50,[1],"39.8 µM [falling, partial curve]"
CCCc1nnc(NC(=O)c2cc(=O)c3cc(Cl)ccc3o2)s1,AC50,[1],"0.794 µM [rising, full curve, poor fit]"
Cc1ccc(-n2nc(C)c3c2OC(N)=C(C#N)C3c2ccncc2)cc1 (centres undefined),AC50,[1],"3.98 µM [falling, partial curve] [measured here: IkB-luc green channel]"
CCC(=O)N1CCc2cc(S(=O)(=O)NC(Cc3ccccc3)C(=O)Nc3cccc(OC)c3)ccc21 (centres undefined),AC50,[1],"10 µM [falling, partial curve]"
CCOC(=O)c1cc(S(=O)(=O)N2CCN(c3ccc(C)cc3C)CC2)[nH]n1,AC50,[1],"20 µM [falling, partial curve]"
CCOc1ccccc1Nc1ncnc2c1cnn2-c1ccccc1,AC50,[1],"12.6 µM [falling, partial curve]"
Cc1nc2scc(C)n2c(=O)c1S(=O)(=O)N1CCN(c2cccc(C(F)(F)F)c2)CC1,AC50,[1],"3.16 µM [falling, partial curve, poor fit]"
CCCOc1ccc(C(=O)Nc2ccc(Cl)c(-c3nc4ncccc4o3)c2)cc1,AC50,[1],"6.31 µM [falling, partial curve]"
Cc1ccc(-c2noc(CCCC(=O)NCc3ccco3)n2)cc1,AC50,[1],"25.1 µM [falling, single point]"
Cc1c(-c2nsc(NC(=O)c3cccc(Cl)c3)n2)nnn1-c1ccccc1C(F)(F)F,AC50,[1],"15.8 µM [falling, partial curve]"
CCOc1ccc(CCNC(=O)CCc2c(C)nc3cc(-c4ccccc4OC)nn3c2C)cc1,AC50,[1],"1 µM [falling, partial curve]"
CCCCn1c(NCc2cc(Cl)ccc2O)nc2ccccc21,AC50,[1],"31.6 µM [falling, partial curve, poor fit]"
COc1ccc(CNCCC(c2ccccc2)c2ccc3c(c2)OCO3)cc1 (centres undefined),AC50,[1],"31.6 µM [falling, single point]"
CCCC1=Nc2cc(C(=O)NCCc3ccccc3)ccc2Sc2ccc(C)cc21,AC50,[2],"5.01 µM [rising, partial curve]"
same,AC50,[3],"39.8 µM [falling, single point]"
COc1ccccc1NC1=C(C)C(=O)CC1,AC50,[1],"25.1 µM [rising, partial curve] [measured here: IkB-luc green channel]"
COc1ccccc1-c1c(C)nn2c(N3CCCCCC3)cc(C)nc12,AC50,[1],"25.1 µM [falling, partial curve]"
COc1cccc(-c2nc(SCC(=O)NC3CCCC3)c(-c3ccccc3)[nH]2)c1,AC50,[1],"31.6 µM [falling, partial curve]"
CCOc1ccc(NC(=O)/C=C\C(=O)N(c2ccc(C(C)C)cc2)C(C(=O)NCc2ccco2)c2ccc(F)cc2)cc1 (centres undefined),AC50,[1],"15.8 µM [falling, partial curve]"
COc1ccc(-c2cnn3c(C)cc(C)nc23)cc1OC,AC50,[1],"2 µM [rising, partial curve, poor fit]"
CCOc1ccc(-c2nc(SCC(=O)NC3CCCC3)c(-c3ccccc3)[nH]2)cc1OC,AC50,[1],"12.6 µM [falling, partial curve]"
COc1ccc(-c2nnc(SCc3cccc(Cl)c3)o2)cc1,AC50,[1],"0.0251 µM [rising, full curve, poor fit]"
COc1ccc(NC(=O)c2c(NC(=O)c3ccc(Br)cc3)sc3c2CCCC3)cc1,AC50,[1],"1 µM [falling, full curve]"
Cc1ccc(O)c(NC(=O)c2cc(-c3ccccc3O)no2)c1,AC50,[1],"39.8 µM [falling, single point]"
CCOc1ccccc1NC(=O)Cc1noc2ccc(C)cc12,AC50,[1],"39.8 µM [falling, single point]"
CCOc1ccc2nc(NC(=O)c3nc(SC)ncc3Cl)sc2c1,AC50,[1],"0.0631 µM [falling, full curve, poor fit]"
COc1cc(NC(=O)c2ccco2)c(OC)cc1NC(=O)c1cc(OC)c(OC)c(OC)c1,AC50,[1],"3.16 µM [falling, partial curve]"
O=C(Cn1cnc2ccccc21)OCC(=O)N1CCc2ccccc2C1,AC50,[1],"5.01 µM [rising, single point]"
COc1cc(NC(=O)c2cn(C3CCCC3)c(=O)c3c2c2ccccc2n3C)cc(OC)c1OC,AC50,[1],"7.94 µM [falling, full curve]"
CC(=O)C1=C(c2ccc(Cl)cc2)N(C(C)=O)n2c(nnc2C2CCCCC2)S1,AC50,[1],"25.1 µM [falling, partial curve]"
Cc1ccc(Cl)cc1N(C)C(=O)c1cn(C2CCCCC2)c(=O)c2c1c1ccccc1n2C,AC50,[1],"25.1 µM [falling, partial curve]"
Cc1ccc(N(CC(=O)Nc2cccc(Cl)c2)S(=O)(=O)c2cccs2)cc1,AC50,[1],"6.31 µM [falling, partial curve]"
Cc1ccc2c(c1)N(CCC(=O)NCc1ccccc1Cl)C(=O)CO2,AC50,[1],"39.8 µM [falling, single point]"
Cc1ccc2onc(CC(=O)Nc3ccc(C(C)C)cc3)c2c1,AC50,[1],"10 µM [falling, partial curve]"
O=c1c2oc3ccccc3c2n(Cc2ccccc2F)c(=O)n1Cc1ccccc1,AC50,[1],"0.2 µM [rising, full curve]"
COc1ccc(N(C(=O)c2cccc(C)c2)S(=O)(=O)c2ccc(Cl)cc2)cc1,AC50,[1],"3.98 µM [falling, full curve, poor fit]"
Cc1c(NC(=O)Nc2ccccc2C(F)(F)F)sc2nc3n(c(=O)c12)CCC(C)CC3 (centres undefined),AC50,[1],"15.8 µM [falling, partial curve]"
COc1ccc2nc(N(Cc3cccnc3)C(=O)C3CCCCC3)sc2c1,AC50,[1],"39.8 µM [falling, single point]"

# Another view of part of the listing above.
structure (smiles)	measurement	setting	value
COc1ccc(NC(=O)/C=C\c2ccc(Cl)cc2)cc1	AC50	[1]	5.01 µM [falling, full curve]
Cc1ccc2c(c1)N(C(=O)Nc1cccc(C)c1C)CCO2	AC50	[1]	12.6 µM [falling, partial curve]

# Exported with bars between the fields: part of the list above
structure (smiles) | measurement | setting | value
COc1ccc(N(CC(=O)Nc2cc(C)ccc2C)S(=O)(=O)c2ccc(OC)c(OC)c2)cc1 | AC50 | [1] | 20 µM [falling, partial curve]
O=C(CN1CCN(C(=O)c2ccco2)CC1)Nc1ccccc1-c1ccccc1 | AC50 | [1] | 10 µM [falling, partial curve]
